The list shows a part of the results.
Assays:
Assay in all cases: log2 fold change, soluble protein after heating vs DMSO (PISA); higher = thermal stabilisation; K562 lysate, 10 uM; active = over 0.2 and 3.5 SD of the protein, either way, in both replicates (recomputed)
lapatinib = compound: CS(=O)(=O)CCNCc1ccc(-c2ccc3ncnc(Nc4ccc(OCc5cccc(F)c5)c(Cl)c4)c3c2)o1 [lapatinib]
Outline: (§1)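 To prepare the extract, K562 pellets were dounce-homogenised in PBS pH 7.4 with 1 mM MgCl2, giving crude material at 1 mg/mL protein. This was treated with 10 μM compound for 30 min, then heated in aliquots for 3 min over 48°C-58°C before pooling and addition of NP-40 to 0.5% at 4°C. Centrifugation at 21,000xg for 90 min left soluble protein in the supernatant, which TMTpro 16plex LC-MS/MS quantified with equalised channel sums. Results are log-two fold changes in thermal stability compared with solvent controls, from duplicates.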

Sequences of proteins named here, by UniProt entry; tags and fusion partners are left off. A change or cut given only in a name is not applied to a line headed by its entry.
UniProt Q86UE4: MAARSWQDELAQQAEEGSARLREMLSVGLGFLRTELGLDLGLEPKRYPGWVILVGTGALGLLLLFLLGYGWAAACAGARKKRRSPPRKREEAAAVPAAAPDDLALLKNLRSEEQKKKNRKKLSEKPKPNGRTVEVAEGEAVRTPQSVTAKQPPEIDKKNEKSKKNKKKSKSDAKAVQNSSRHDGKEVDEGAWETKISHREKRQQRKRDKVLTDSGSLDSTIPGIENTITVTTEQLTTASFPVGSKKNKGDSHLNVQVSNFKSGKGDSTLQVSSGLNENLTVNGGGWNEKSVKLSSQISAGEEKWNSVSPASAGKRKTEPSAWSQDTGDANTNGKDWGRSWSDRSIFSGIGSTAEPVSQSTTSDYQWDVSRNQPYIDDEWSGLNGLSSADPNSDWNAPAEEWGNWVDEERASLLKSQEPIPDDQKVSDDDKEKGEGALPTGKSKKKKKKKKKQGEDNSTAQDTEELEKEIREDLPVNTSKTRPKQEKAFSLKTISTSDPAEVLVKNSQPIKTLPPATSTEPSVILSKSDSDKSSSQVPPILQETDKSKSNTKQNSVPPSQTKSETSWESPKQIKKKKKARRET
UniProt O94776: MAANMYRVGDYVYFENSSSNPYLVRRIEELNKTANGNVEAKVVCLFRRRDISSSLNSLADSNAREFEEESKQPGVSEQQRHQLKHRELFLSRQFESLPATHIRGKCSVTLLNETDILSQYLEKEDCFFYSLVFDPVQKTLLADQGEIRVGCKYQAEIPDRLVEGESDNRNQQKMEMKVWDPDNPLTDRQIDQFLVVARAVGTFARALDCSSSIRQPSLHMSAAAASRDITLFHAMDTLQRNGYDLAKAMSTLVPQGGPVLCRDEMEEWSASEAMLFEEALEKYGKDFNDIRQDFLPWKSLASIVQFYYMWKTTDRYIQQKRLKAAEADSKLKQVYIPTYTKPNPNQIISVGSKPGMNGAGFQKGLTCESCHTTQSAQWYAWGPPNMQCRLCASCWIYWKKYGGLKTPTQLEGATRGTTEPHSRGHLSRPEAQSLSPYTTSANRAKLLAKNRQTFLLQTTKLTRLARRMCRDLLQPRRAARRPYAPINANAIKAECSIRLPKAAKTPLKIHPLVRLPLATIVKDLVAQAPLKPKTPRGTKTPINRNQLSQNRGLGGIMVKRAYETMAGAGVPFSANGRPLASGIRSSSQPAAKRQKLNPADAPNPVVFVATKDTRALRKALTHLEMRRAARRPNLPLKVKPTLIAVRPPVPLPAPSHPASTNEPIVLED
UniProt Q9NZJ7, whole entry, looked up: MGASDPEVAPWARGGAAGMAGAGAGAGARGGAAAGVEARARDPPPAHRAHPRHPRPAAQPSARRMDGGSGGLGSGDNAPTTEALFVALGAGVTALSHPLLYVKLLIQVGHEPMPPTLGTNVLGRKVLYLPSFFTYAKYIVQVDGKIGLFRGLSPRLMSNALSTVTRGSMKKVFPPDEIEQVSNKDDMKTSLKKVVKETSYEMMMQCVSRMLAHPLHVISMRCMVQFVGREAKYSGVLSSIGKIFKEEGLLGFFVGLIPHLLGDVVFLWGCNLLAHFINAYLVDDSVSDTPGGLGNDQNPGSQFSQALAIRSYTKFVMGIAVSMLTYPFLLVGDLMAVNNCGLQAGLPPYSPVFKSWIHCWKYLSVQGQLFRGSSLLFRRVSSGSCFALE
UniProt Q15390: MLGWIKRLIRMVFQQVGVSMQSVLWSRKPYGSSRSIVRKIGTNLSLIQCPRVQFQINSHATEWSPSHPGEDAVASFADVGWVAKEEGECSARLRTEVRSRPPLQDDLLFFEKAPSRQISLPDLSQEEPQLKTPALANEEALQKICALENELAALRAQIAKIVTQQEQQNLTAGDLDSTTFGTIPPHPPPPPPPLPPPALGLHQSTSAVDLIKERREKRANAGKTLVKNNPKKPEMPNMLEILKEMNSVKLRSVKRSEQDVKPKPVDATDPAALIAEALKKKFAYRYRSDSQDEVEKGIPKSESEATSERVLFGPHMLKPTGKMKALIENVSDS
UniProt P13995: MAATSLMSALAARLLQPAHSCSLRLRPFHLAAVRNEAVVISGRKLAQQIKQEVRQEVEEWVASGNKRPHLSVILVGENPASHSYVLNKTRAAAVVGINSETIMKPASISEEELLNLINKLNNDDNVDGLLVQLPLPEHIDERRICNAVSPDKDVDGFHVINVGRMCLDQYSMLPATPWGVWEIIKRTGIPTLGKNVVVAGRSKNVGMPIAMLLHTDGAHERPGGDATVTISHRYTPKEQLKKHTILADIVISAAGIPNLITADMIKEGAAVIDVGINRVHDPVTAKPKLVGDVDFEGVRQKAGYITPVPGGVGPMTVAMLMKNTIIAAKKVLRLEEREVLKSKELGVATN
UniProt Q9C0I1: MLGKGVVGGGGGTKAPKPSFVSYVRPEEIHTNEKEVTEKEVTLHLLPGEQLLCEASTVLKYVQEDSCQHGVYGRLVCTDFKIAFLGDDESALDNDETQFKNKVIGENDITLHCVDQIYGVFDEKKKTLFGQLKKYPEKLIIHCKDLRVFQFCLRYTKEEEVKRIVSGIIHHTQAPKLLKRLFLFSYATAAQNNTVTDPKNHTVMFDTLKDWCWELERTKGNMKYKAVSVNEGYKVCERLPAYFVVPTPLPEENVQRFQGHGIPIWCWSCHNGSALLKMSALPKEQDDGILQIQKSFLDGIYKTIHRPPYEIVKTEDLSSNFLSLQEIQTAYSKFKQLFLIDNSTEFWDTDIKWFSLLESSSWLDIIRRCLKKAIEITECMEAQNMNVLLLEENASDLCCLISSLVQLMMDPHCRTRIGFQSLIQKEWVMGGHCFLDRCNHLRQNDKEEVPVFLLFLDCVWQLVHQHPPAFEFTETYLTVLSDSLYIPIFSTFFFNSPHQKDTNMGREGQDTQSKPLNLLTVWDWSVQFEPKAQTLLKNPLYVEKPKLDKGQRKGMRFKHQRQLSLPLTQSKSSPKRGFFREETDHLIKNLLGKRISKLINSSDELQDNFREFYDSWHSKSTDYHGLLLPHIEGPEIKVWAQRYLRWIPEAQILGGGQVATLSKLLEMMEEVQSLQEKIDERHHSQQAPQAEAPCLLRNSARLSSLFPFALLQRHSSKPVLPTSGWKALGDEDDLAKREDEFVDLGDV
UniProt P43246, whole entry, looked up: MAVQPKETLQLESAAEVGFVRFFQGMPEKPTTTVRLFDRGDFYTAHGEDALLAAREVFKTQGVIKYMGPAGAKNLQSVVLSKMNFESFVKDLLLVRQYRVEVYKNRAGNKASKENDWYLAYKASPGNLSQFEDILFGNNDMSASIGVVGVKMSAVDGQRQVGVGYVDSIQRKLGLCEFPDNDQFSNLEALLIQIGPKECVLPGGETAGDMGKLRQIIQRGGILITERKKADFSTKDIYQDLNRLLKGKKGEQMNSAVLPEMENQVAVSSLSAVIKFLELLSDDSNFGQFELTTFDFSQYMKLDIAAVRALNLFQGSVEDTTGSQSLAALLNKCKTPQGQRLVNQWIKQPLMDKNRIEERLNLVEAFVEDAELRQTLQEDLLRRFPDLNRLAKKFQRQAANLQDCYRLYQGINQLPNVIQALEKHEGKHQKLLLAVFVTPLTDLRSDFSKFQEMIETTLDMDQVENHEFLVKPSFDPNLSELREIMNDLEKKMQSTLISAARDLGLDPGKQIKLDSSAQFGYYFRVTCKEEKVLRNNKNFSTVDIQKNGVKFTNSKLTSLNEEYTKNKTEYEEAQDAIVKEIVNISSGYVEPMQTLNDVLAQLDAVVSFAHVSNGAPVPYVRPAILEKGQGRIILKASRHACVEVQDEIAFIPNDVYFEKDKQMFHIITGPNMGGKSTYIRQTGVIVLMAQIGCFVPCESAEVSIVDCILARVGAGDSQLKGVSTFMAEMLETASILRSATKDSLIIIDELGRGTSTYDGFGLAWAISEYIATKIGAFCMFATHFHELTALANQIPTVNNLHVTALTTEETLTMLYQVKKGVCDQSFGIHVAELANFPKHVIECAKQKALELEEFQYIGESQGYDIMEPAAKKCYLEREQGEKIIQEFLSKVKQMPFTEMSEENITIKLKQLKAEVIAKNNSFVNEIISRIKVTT

pictilisib = compound: CS(=O)(=O)N1CCN(Cc2cc3nc(-c4cccc5[nH]ncc45)nc(N4CCOCC4)c3s2)CC1 [pictilisib]
Outline: as §1

crizotinib = compound: C[C@@H](Oc1cc(-c2cnn(C3CCNCC3)c2)cnc1N)c1c(Cl)ccc(F)c1Cl [crizotinib]
Outline: as §1

[1] = compound: C[C@H](C1=CC=C(C=C1)C(=O)NC2=C3C=CNC3=NC=C2)N
Outline: as §1

duvelisib = compound: C[C@H](Nc1ncnc2nc[nH]c12)c1cc2cccc(Cl)c2c(=O)n1-c1ccccc1 [duvelisib]
Outline: as §1

gandotinib = compound: Cc1cc(Nc2cc(CN3CCOCC3)c3nc(C)c(Cc4ccc(Cl)cc4F)n3n2)n[nH]1 [gandotinib]
Outline: as §1

tozasertib = compound: Cc1cc(Nc2cc(N3CCN(C)CC3)nc(Sc3ccc(NC(=O)C4CC4)cc3)n2)n[nH]1 [tozasertib]
Outline: as §1

doramapimod = compound: Cc1ccc(-n2nc(C(C)(C)C)cc2NC(=O)Nc2ccc(OCCN3CCOCC3)c3ccccc23)cc1 [doramapimod]
Outline: as §1

bafetinib = compound: Cc1ccc(NC(=O)c2ccc(CN3CC[C@H](N(C)C)C3)c(C(F)(F)F)c2)cc1Nc1nccc(-c2cncnc2)n1 [bafetinib]
Outline: as §1

[2] = compound: Cc1cccc(CC(=O)N2CCc3c2ccc(-c2cn(C)c4ncnc(N)c24)c3F)n1
Outline: as §1

nilotinib = compound: Cc1cn(-c2cc(NC(=O)c3ccc(C)c(Nc4nccc(-c5cccnc5)n4)c3)cc(C(F)(F)F)c2)cn1 [nilotinib]
Outline: as §1

[3] = compound: Cc1nc(Nc2n[nH]c3c2CN(C(=O)N[C@H](CN(C)C)c2ccccc2)C3(C)C)c2sccc2n1
Outline: as §1

dasatinib = compound: Cc1nc(Nc2ncc(C(=O)Nc3c(C)cccc3Cl)s2)cc(N2CCN(CCO)CC2)n1 [dasatinib]
Outline: as §1

[4] = compound: Cc1ncc(-c2ccnc(Nc3ccc(S(C)(=O)=O)cc3)n2)n1C(C)C
Outline: as §1

[5] = compound: Cn1cc(-c2ccc3c(c2)CCN3C(=O)Cc2cccc(C(F)(F)F)c2)c2c(N)ncnc21
Outline: as §1

quisinostat = compound: Cn1cc(CNCC2CCN(c3ncc(C(=O)NO)cn3)CC2)c2ccccc21 [quisinostat]
Outline: as §1

tipifarnib = compound: Cn1cncc1[C@@](N)(c1ccc(Cl)cc1)c1ccc2c(c1)c(-c1cccc(Cl)c1)cc(=O)n2C [tipifarnib]
Outline: as §1

[6] = compound: NC(=O)Nc1cc(-c2cccc(F)c2)sc1C(=O)N[C@H]1CCCNC1
Outline: as §1

[7] = compound: NC(=O)c1cnc(N[C@@H]2CCCC[C@@H]2N)nc1Nc1cccc(-n2nccn2)c1
Outline: as §1

[8] = compound: NC1(c2ccc(-c3nc4ccn5c(=O)[nH]nc5c4cc3-c3ccccc3)cc2)CCC1
Outline: as §1

Measured: log2 fold change

MTDH (UniProt Q86UE4)
inactive: lapatinib -0.019 | pictilisib -0.01 | crizotinib 0.028 | [1] -0.016 | duvelisib 0.012 | gandotinib 0.034 | tozasertib -0.033 | doramapimod 0.002 | bafetinib -0.001 | [2] 0.008 | nilotinib -0.033 | [3] 0.022 | dasatinib 0.024 | [4] 0.004 | [5] -0.024 | quisinostat 0.009 | tipifarnib -0.03 | [6] -0.006 | [7] -0.016 | [8] -0.033

MRPS11 (UniProt P82912)
inactive: lapatinib 0.013 | pictilisib 0.012 | crizotinib 0.017 | [1] -0.112 | duvelisib 0 | gandotinib 0.168 | tozasertib 0.103 | doramapimod -0.052 | bafetinib -0.028 | [2] 0.069 | nilotinib -0.108 | [3] 0.074 | dasatinib -0.109 | [4] 0.006 | [5] 0.038 | quisinostat 0.036 | tipifarnib 0.175 | [6] 0.061 | [7] -0.014 | [8] -0.091

MRPS25 (UniProt P82663)
inactive: lapatinib -0.01 | pictilisib -0.006 | crizotinib -0.053 | [1] 0.101 | duvelisib 0.031 | gandotinib 0.022 | tozasertib 0.02 | doramapimod 0.014 | bafetinib 0.072 | [2] -0.055 | nilotinib 0.019 | [3] -0.001 | dasatinib -0.015 | [4] 0.018 | [5] 0.042 | quisinostat 0.013 | tipifarnib -0.006 | [6] 0.036 | [7] 0.027 | [8] -0.091

MTA2 (UniProt O94776)
inactive: lapatinib -0.003 | pictilisib 0.017 | crizotinib 0 | [1] 0.013 | duvelisib 0 | gandotinib -0.033 | tozasertib -0.016 | doramapimod 0.031 | bafetinib -0.009 | [2] 0.021 | nilotinib 0.001 | [3] 0.017 | dasatinib -0.019 | [4] -0.011 | [5] 0.046 | quisinostat -0.062 | tipifarnib -0.007 | [6] 0.03 | [7] -0.002 | [8] 0.001

MTCH1 (UniProt Q9NZJ7)
inactive: lapatinib 0.018 | pictilisib -0.017 | crizotinib -0.021 | [1] -0.172 | duvelisib 0.016 | gandotinib 0.123 | tozasertib 0.009 | doramapimod -0.001 | bafetinib 0.122 | [2] 0.063 | nilotinib -0.019 | [3] -0.017 | dasatinib 0.04 | [4] -0.01 | [5] -0.035 | quisinostat 0.057 | tipifarnib 0.031 | [6] 0.003 | [7] -0.015 | [8] 0.005

MRPS24 (UniProt Q96EL2)
inactive: lapatinib 0.002 | pictilisib -0.037 | crizotinib 0.035 | [1] -0.076 | duvelisib -0.011 | gandotinib -0.177 | tozasertib 0.175 | doramapimod 0.123 | bafetinib 0.048 | [2] -0.076 | nilotinib -0.041 | [3] -0.001 | dasatinib 0.083 | [4] -0.04 | [5] 0.137 | quisinostat 0.069 | tipifarnib -0.004 | [6] -0.063 | [7] -0.002 | [8] 0

MTFR1 (UniProt Q15390)
inactive: lapatinib -0.047 | pictilisib 0.032 | crizotinib 0.009 | [1] -0.089 | duvelisib -0.009 | gandotinib -0.023 | tozasertib 0.017 | doramapimod -0.05 | bafetinib -0.061 | [2] 0.055 | nilotinib 0.095 | [3] -0.02 | dasatinib 0 | [4] -0.093 | [5] -0.031 | quisinostat -0.001 | tipifarnib -0.043 | [6] 0.045 | [7] 0.017 | [8] -0.036

MRPS26 (UniProt Q9BYN8)
inactive: lapatinib 0.052 | pictilisib 0.05 | crizotinib 0.042 | [1] -0.074 | duvelisib 0.028 | gandotinib 0.003 | tozasertib 0.031 | doramapimod 0.066 | bafetinib 0.081 | [2] 0.033 | nilotinib 0.11 | [3] -0.3 | dasatinib -0.017 | [4] 0.209 | [5] 0.057 | quisinostat 0.001 | tipifarnib 0.303 | [6] 0.084 | [7] -0.009 | [8] 0.078

MRPL34 (UniProt Q9BQ48)
inactive: lapatinib -0.101 | pictilisib -0.097 | crizotinib -0.044 | [1] 0.031 | duvelisib 0.23 | gandotinib -0.013 | tozasertib -0.084 | doramapimod -0.176 | bafetinib -0.01 | [2] -0.029 | dasatinib -0.013 | [5] 0.055 | quisinostat -0.011 | [6] 0.005 | [7] -0.036

MRPL51 (UniProt Q4U2R6)
inactive: lapatinib -0.051 | pictilisib -0.016 | crizotinib 0.056 | [1] -0.201 | duvelisib -0.004 | gandotinib 0.058 | tozasertib 0.083 | doramapimod -0.247 | bafetinib 0.02 | [2] 0.091 | nilotinib -0.029 | [3] -0.006 | dasatinib -0.056 | [4] -0.054 | [5] -0.055 | tipifarnib -0.003 | [6] 0.055 | [7] -0.003 | [8] 0.024
active: quisinostat 0.27

MTHFD2 (UniProt P13995)
inactive: lapatinib -0.005 | pictilisib 0.02 | crizotinib -0.042 | [1] -0.042 | duvelisib -0.006 | gandotinib -0.061 | tozasertib 0.056 | doramapimod 0.022 | bafetinib 0.019 | [2] 0.055 | nilotinib 0.011 | [3] -0.018 | dasatinib -0.025 | [4] 0.003 | [5] 0.02 | quisinostat -0.019 | tipifarnib -0.016 | [6] 0.024 | [7] 0.002 | [8] 0.017

MTMR12 (UniProt Q9C0I1)
inactive: lapatinib 0.017 | pictilisib -0.016 | crizotinib 0.029 | [1] -0.017 | duvelisib -0.007 | gandotinib 0.057 | tozasertib -0.001 | doramapimod 0.037 | bafetinib -0.029 | [2] 0.011 | nilotinib -0.051 | [3] -0.004 | dasatinib 0.024 | [4] 0.001 | [5] 0.014 | quisinostat -0.02 | tipifarnib 0.013 | [6] -0.013 | [7] -0.007 | [8] 0.008

MRPL53 (UniProt Q96EL3)
inactive: lapatinib 0.022 | pictilisib -0.004 | crizotinib 0.031 | [1] 0.079 | duvelisib 0 | gandotinib -0.04 | tozasertib 0.016 | doramapimod 0.009 | bafetinib 0.005 | [2] 0.012 | nilotinib -0.04 | [3] 0.026 | dasatinib -0.018 | [4] 0.015 | [5] 0.06 | quisinostat 0.02 | tipifarnib -0.034 | [6] -0.041 | [7] -0.006 | [8] 0.031

MRPL37 (UniProt Q9BZE1)
inactive: lapatinib -0.031 | pictilisib -0.008 | crizotinib -0.093 | [1] -0.045 | duvelisib -0.019 | gandotinib 0.038 | tozasertib 0.004 | doramapimod 0.024 | bafetinib -0.031 | [2] 0.039 | nilotinib -0.004 | [3] -0.002 | dasatinib -0.034 | [4] -0.043 | [5] 0.015 | quisinostat -0.051 | tipifarnib -0.005 | [6] 0.032 | [7] 0.017 | [8] -0.023

MRPS15 (UniProt P82914)
inactive: lapatinib -0.022 | pictilisib -0.034 | crizotinib -0.073 | [1] -0.055 | duvelisib 0.051 | gandotinib 0.077 | tozasertib 0.041 | doramapimod 0.073 | bafetinib -0.234 | [2] 0.19 | nilotinib -0.008 | [3] -0.002 | dasatinib -0.016 | [4] -0.02 | [5] -0.027 | quisinostat -0.126 | tipifarnib 0.012 | [6] 0.047 | [7] -0.023 | [8] -0.207

MSH2 (UniProt P43246)
inactive: lapatinib -0.005 | pictilisib -0.003 | crizotinib -0.04 | [1] 0.028 | duvelisib -0.001 | gandotinib -0.068 | tozasertib 0.002 | doramapimod 0.013 | bafetinib -0.026 | [2] 0.002 | nilotinib -0.005 | [3] -0.008 | dasatinib -0.038 | [4] -0.01 | [5] 0.01 | quisinostat -0.08 | tipifarnib 0.004 | [6] 0.046 | [7] 0.016 | [8] -0.017

Source: the supplement of paper PMC10849652
